From the supplement of paper PMC10849652
The list shows a part of the results. Residues, ends and D or L forms follow the SMILES beside them. *: point of attachment. Cbz = O=C(OCc1ccccc1)*

Sequences of proteins named here, by UniProt entry; tags and fusion partners are left off. A change or cut given only in a name is not applied to a line headed by its entry.
UniProt P33240: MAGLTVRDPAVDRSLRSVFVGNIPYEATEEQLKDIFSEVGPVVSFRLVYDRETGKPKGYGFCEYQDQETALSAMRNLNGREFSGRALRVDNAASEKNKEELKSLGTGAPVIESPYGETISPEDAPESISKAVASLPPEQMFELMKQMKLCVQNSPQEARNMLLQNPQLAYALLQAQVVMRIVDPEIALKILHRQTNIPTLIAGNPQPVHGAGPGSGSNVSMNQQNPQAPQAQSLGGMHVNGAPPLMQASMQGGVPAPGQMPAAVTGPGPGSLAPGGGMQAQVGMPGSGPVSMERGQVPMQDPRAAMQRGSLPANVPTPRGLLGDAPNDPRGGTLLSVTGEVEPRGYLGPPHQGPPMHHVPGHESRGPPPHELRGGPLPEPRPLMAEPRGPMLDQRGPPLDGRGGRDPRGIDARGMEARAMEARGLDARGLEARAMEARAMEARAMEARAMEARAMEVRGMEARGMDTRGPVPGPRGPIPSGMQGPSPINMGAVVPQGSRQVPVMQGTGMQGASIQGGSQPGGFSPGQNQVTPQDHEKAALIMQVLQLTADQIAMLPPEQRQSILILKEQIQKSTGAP
UniProt Q99418: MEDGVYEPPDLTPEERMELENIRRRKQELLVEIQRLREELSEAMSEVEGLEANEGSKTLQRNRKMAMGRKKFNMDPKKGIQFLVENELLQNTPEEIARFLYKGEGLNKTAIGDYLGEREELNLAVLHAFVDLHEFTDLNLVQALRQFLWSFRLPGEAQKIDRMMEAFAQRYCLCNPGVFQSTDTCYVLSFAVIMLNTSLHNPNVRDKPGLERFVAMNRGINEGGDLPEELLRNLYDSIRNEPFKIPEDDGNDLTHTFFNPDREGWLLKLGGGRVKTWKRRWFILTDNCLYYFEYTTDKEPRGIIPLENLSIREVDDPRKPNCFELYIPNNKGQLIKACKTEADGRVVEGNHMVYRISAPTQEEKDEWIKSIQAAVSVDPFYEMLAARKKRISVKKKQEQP
UniProt Q07973: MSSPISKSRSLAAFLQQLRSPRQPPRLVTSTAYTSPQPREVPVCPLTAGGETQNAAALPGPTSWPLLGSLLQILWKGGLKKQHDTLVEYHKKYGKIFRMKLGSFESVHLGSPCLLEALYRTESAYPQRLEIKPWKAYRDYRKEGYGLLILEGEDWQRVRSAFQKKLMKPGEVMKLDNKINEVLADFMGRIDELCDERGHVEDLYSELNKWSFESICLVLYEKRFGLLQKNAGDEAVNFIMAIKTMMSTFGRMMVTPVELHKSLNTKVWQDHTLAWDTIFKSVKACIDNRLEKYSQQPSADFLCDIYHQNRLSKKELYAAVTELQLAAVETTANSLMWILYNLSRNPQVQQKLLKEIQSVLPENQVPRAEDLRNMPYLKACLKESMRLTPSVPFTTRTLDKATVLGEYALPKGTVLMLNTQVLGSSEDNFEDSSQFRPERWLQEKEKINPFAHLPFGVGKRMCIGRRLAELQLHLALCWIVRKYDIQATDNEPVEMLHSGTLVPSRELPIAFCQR
UniProt Q9H1C7: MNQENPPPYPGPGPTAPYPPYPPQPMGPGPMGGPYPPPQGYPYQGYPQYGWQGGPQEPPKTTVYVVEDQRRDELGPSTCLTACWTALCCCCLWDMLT
UniProt P11182, whole entry, looked up: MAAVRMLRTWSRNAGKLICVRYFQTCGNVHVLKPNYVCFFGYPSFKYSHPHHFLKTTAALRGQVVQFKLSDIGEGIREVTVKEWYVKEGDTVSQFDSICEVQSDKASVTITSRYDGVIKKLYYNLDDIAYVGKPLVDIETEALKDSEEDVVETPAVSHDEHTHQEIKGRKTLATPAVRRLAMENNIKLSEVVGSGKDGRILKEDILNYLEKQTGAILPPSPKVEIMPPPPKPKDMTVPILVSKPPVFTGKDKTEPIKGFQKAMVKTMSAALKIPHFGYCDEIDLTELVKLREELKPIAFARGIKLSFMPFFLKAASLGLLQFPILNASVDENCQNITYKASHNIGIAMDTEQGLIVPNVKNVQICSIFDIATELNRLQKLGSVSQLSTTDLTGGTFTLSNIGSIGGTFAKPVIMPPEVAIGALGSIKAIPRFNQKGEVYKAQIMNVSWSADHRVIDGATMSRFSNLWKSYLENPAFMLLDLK
UniProt P07711: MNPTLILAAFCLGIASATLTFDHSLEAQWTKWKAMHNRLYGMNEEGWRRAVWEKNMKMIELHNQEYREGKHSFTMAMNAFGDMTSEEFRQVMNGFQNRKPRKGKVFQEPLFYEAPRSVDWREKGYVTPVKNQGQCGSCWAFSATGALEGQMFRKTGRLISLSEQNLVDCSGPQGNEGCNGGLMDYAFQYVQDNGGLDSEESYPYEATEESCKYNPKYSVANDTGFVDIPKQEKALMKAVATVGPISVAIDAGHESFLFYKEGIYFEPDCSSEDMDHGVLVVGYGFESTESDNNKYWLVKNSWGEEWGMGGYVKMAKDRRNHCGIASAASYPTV
UniProt Q9UER7, whole entry, looked up: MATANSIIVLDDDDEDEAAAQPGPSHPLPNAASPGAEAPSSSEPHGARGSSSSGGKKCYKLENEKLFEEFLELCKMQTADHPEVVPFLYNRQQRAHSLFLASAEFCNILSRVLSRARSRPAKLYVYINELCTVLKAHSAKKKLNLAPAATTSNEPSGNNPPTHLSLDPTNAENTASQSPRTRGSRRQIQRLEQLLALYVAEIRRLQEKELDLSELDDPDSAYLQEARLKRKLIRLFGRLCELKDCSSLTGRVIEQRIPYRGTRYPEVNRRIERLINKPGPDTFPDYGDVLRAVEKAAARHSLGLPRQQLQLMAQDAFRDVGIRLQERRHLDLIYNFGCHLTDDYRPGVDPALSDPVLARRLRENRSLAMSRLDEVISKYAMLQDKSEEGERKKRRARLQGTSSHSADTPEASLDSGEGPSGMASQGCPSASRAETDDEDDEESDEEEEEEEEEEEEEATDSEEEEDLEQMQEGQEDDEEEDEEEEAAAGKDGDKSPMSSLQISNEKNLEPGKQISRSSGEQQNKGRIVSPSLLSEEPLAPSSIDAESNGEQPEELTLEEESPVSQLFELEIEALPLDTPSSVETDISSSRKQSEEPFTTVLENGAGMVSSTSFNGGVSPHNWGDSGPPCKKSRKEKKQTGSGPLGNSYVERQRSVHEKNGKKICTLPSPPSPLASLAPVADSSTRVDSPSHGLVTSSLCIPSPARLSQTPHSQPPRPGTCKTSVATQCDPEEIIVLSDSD
UniProt Q9NXF7, whole entry, looked up: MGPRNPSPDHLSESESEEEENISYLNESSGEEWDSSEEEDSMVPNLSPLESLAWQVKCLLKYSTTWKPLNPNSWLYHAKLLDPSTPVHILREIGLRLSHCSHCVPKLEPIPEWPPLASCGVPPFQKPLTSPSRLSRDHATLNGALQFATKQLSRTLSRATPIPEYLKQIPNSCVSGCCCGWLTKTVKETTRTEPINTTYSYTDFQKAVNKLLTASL
UniProt Q8NBI2: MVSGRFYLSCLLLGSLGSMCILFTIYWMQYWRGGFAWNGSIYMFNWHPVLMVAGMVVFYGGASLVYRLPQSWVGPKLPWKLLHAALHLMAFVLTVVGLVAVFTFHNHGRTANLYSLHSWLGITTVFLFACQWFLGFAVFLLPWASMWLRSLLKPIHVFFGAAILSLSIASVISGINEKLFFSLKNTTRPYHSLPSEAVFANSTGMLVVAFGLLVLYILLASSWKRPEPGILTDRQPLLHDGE
UniProt P50461: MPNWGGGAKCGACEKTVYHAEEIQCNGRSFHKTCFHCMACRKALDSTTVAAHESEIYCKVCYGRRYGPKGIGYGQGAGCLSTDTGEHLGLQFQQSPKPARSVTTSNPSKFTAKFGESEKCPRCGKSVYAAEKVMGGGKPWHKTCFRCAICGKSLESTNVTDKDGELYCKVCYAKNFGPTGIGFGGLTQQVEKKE
UniProt P01036: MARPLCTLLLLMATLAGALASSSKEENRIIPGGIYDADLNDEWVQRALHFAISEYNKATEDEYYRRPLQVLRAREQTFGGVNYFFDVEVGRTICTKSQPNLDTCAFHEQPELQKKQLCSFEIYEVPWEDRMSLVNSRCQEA

Tests used:
Assay in all cases: log2 fold change, soluble protein after heating vs DMSO (PISA); higher = thermal stabilisation; K562 cells, 10 uM, 30 min; active = over 0.2 and 3.5 SD of the protein, either way, in both replicates (recomputed)
[1] = compound: C1COCCN1CCN2C3=CC=CC=C3N=C2NC(=O)C4=CC(=CC=C4)[N+](=O)[O-] [IRAK-1-4 Inhibitor I]
How it was run: (§1)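 K562 cells at 2×10^6 cells/mL were given 10 μM compound for 30 min. Aliquots then went through 3 min of heating across 48°C-58°C, were pooled, and were extracted in PBS with 0.5% NP-40 at 4°C, and the supernatant after 21,000xg for 90 min was quantified by TMTpro 16plex LC-MS/MS with channel sums equalised. Thermal stability relative to control samples, from duplicates, is given as log2 fold change.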

[2] = compound: C=CC(=O)N1CCC[C@@H](n2nc(-c3ccc(Oc4ccccc4)cc3)c3c(N)ncnc32)C1 [ibrutinib]
How it was run: as §1

[3] = compound: CC(=O)c1cnc2ccc(-c3cc(Cl)c(O)c(Cl)c3)nc2c1N[C@H]1CC[C@H](CN(C)C)CC1
How it was run: as §1

[4] = compound: CC(C)(C)Cn1c(N)nc2ccc(-c3[nH]c(C(C)(C)C)nc3-c3ccc(F)cc3)nc21 [ralimetinib]
How it was run: as §1

[5] = compound: CC(C)(O)CC(=O)NCCn1ccc2ncnc(Nc3ccc(Oc4cccc(C(F)(F)F)c4)c(Cl)c3)c21
How it was run: as §1

[6] = compound: CC(C)C1=C2N=C(C=C(N2N=C1)NCC3=CC=CC=C3)NCCCCCCN
How it was run: as §1

[7] = compound: CC(C)C[C@@H](C=O)NC(=O)[C@H](CC(C)C)NC(=O)[C@H](CC(C)C)NC(=O)OCc1ccccc1
How it was run: as §1

[8] = compound: CC(C)N(C[C@H]1O[C@@H](n2cnc3c(N)ncnc32)[C@H](O)[C@@H]1O)[C@H]1C[C@@H](CCc2nc3cc(C(C)(C)C)ccc3[nH]2)C1 [pinometostat]
How it was run: as §1

[9] = compound: CC1=C(C2=C(C=C1)C(=O)C3=CC=CC=C3N2CCCN)C
How it was run: as §1

[10] = compound: CC1=C(C=C(C=C1)NC(=O)C2=CC(=CC=C2)C(C)(C)C#N)NC3=CC4=C(C=C3)N=CN(C4=O)C
How it was run: as §1

[11] = compound: CC1=C(C=C(C=C1)NC(=O)C2=CC(=CC=C2)N(C)C)NC(=O)C3=CC=C(C=C3)O
How it was run: as §1

[12] = compound: CC1=CC=C(C=C1)SC2=C3C=C(SC3=CN=C2)C(=O)N
How it was run: as §1

[13] = compound: CC1=NC(=CC=C1)C2=C(N=C(N2)C(C)(C)C)C3=CC4=NC=CN=C4C=C3
How it was run: as §1

[14] = compound: CCCCN(Cc1ccc(C(=O)NO)cc1)C(=O)Nc1ccccc1 [Nexturastat A]
How it was run: as §1

[15] = compound: CCCS(=O)(=O)Nc1ccc(F)c(C(=O)c2c[nH]c3ncc(-c4ccc(Cl)cc4)cc23)c1F [vemurafenib]
How it was run: as §1

[16] = compound: CCCS(=O)(=O)Nc1ccc(F)c(C(=O)c2c[nH]c3ncc(Cl)cc23)c1F
How it was run: as §1

[17] = compound: CCCc1cc(C)[nH]c(=O)c1CNC(=O)c1cc(-c2ccnc(N3CCN(C)CC3)c2)cc2c1cnn2C(C)C
How it was run: as §1

[18] = compound: CCN(CC)Cc1ccc2cc(COC(=O)Nc3ccc(C(=O)NO)cc3)ccc2c1 [givinostat]
How it was run: as §1

[19] = compound: CCN(CCCOc1ccc2c(Nc3cc(CC(=O)Nc4cccc(F)c4)[nH]n3)ncnc2c1)CCOP(=O)(O)O [barasertib]
How it was run: as §1

[20] = compound: CC1=C(C(CC(=O)N1)C2=CC=C(C=C2)C(F)(F)F)C(=O)NC3=C(C=C4C(=C3)C=NN4)F
How it was run: as §1

Target	log2 fold change [1]	log2 fold change [2]	log2 fold change [3]	log2 fold change [4]	log2 fold change [5]	log2 fold change [6]	log2 fold change [7]	log2 fold change [8]	log2 fold change [9]	log2 fold change [10]	log2 fold change [11]	log2 fold change [12]	log2 fold change [13]	log2 fold change [14]	log2 fold change [15]	log2 fold change [16]	log2 fold change [17]	log2 fold change [18]	log2 fold change [19]	log2 fold change [20]
CSTF2 (UniProt P33240)	inactive: 0.011	inactive: 0.008	inactive: 0.057	inactive: -0.006	inactive: 0.025	inactive: 0.093	inactive: -0.006	inactive: -0.008	inactive: 0.169	inactive: -0.081	inactive: 0	inactive: 0.002	inactive: -0.05	inactive: 0.026	inactive: 0.016	inactive: -0.053	inactive: 0.004	inactive: -0.014	inactive: -0.042	
CYTH2 (UniProt Q99418)	inactive: -0.085	inactive: -0.047	inactive: -0.093			inactive: 0.03		inactive: 0.138	inactive: -0.139			inactive: -0.038	inactive: -0.007			inactive: -0.016	inactive: -0.036	inactive: 0.007	inactive: 0.067	
CYP24A1 (UniProt Q07973)	inactive: -0.162	inactive: -0.044	inactive: 0.187	inactive: 0.412		inactive: 0.069	inactive: 0.31	inactive: 0.276	inactive: -0.089		inactive: 0.051	inactive: -0.039	inactive: -0.306		inactive: -0.198	inactive: -0.057	inactive: -0.183	inactive: 0.233	inactive: -0.146	
CYSTM1 (UniProt Q9H1C7)	inactive: 0.039	inactive: -0.062	inactive: -0.037	inactive: -0.003		inactive: -0.227	inactive: -0.046	inactive: -0.032	inactive: -0.102	inactive: -0.015	inactive: 0.117	inactive: -0.035	inactive: -0.009		inactive: 0.015	inactive: 0.004	inactive: 0.238	inactive: -0.037	inactive: 0.19	inactive: -0.116
DBT (UniProt P11182)	inactive: -0.004	inactive: 0.019	inactive: 0.021	inactive: 0.109	inactive: 0.006	inactive: 0.027	inactive: 0.023	inactive: 0.002	active: 0.352	inactive: 0.001	inactive: -0.017	inactive: 0.01	inactive: -0.015	inactive: 0.024	inactive: -0.011	inactive: 0.015	inactive: -0.042	inactive: 0.005	inactive: -0.033	
CTSL (UniProt P07711)	inactive: 0.068	inactive: 0.009	inactive: 0.099	inactive: 0.022	inactive: -0.014	active: -0.412	inactive: 0.098	inactive: -0.006	inactive: -0.031	inactive: -0.083	inactive: 0.014	inactive: -0.049	inactive: 0.013	inactive: 0.085	inactive: -0.023	inactive: -0.05	inactive: 0.033	inactive: 0.121	inactive: 0.092	
DAXX (UniProt Q9UER7)	inactive: 0.13	inactive: 0.091	inactive: 0.008	inactive: 0.218		inactive: 0.243	inactive: 0.088	inactive: -0.049	inactive: 0.078	inactive: 0.019	inactive: -0.02	inactive: 0.031	inactive: -0.165		inactive: -0.058	inactive: 0.031		inactive: 0.352	inactive: -0.025	
DCAF16 (UniProt Q9NXF7)	inactive: -0.04	inactive: 0.017	inactive: 0.039	inactive: 0.034	inactive: -0.052	inactive: -0.027	inactive: 0.018	inactive: 0.055	inactive: -0.105	inactive: -0.036	inactive: -0.013	inactive: 0.059	inactive: -0.015	inactive: 0.063	inactive: 0.151	inactive: 0.185	inactive: 0.042	inactive: -0.016	inactive: 0.024	
CYB561A3 isoform 2 (UniProt Q8NBI2)	inactive: 0.024	inactive: 0.014	inactive: 0.033	inactive: -0.026		inactive: -0.164	inactive: -0.019	inactive: -0.054	inactive: -0.027	inactive: 0.051	inactive: 0.025	inactive: -0.074	inactive: 0.02			inactive: 0.059	inactive: -0.086	inactive: 0.033	inactive: -0.057	
CSRP3 (UniProt P50461)	inactive: 0.095	inactive: 0.067	inactive: -0.018	inactive: 0.078		inactive: 0.04	inactive: -0.242	inactive: -0.014	inactive: -0.094	inactive: -0.051	inactive: 0.008	inactive: -0.041	inactive: 0.027		inactive: -0.111	inactive: -0.002	inactive: -0.238	inactive: 0.006	inactive: 0.14	inactive: 0.071
CST4 (UniProt P01036)		inactive: 0.177								inactive: -0.013					inactive: -0.061		inactive: -0.394		inactive: 0.351	inactive: -0.094
